Assay results as given in doi:10.1101/2020.12.23.424221.
These are yes or no findings as the source states them, for the method shown. Tags and fused reporters may be left off the sequences shown.

Target: T1, GFP-tagged Kif4A (human), O95239
T1 chain: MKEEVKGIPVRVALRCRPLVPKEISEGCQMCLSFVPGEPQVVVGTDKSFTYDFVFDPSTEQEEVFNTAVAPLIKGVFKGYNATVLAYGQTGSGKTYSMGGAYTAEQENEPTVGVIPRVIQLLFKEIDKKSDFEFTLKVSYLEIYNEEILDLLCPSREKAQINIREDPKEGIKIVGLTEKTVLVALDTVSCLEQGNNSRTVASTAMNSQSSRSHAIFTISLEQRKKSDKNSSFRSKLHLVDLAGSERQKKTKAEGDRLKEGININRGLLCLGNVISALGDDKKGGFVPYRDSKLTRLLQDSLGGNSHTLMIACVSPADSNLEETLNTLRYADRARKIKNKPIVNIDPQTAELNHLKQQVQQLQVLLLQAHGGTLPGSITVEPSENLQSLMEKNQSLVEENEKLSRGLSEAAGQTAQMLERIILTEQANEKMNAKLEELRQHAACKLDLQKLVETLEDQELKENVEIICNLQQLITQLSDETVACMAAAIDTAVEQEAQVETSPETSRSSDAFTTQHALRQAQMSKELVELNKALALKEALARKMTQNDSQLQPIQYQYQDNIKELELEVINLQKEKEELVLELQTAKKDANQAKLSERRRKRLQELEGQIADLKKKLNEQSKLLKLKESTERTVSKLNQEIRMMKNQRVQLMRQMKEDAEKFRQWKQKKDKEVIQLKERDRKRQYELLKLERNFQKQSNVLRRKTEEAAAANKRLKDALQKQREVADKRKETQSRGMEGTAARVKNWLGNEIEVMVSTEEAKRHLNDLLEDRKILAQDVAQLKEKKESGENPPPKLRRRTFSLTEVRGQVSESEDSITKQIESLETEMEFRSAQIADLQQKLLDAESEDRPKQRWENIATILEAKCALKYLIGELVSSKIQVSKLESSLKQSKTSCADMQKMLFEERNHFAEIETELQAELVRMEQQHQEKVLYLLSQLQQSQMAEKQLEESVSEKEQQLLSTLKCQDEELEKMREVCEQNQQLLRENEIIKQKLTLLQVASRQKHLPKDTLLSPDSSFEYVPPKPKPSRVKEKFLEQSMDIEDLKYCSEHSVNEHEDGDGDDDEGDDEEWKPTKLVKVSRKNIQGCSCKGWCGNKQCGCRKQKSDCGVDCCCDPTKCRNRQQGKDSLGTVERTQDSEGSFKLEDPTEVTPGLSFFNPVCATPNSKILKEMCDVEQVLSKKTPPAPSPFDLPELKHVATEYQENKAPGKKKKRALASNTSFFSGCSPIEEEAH
Experiment: single-molecule fluorescence intensity measurements
Details: remark: other sources report otherwise

B1: GFP-tagged Kif4A, O95239 1-1232 (protein)
chain: T1 chain
  binding: no binding
